The list shows a part of the results.
Key:
Test in all cases: glycan array binding signal (z-score within array); higher = stronger binding
Details in all cases: glycan notation: IUPAC condensed, linker removed
[1] = molecular target: Fuc(a1-2)[GalNAc(a1-3)]Gal(b1-3)GlcNAc(b1-6)GalNAc
Method in brief: (§1)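 Negative Z-scores can be read as non-binding. The Z-score is calculated within each array and then averaged across arrays of one protein sequence at different concentrations or buffers and across linkers. Arrays, 3228 in all, were curated from the Consortium for Functional Glycomics database and kept only where the protein sequence was available.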

[2] = molecular target: Fuc(a1-2)[GalNAc(a1-3)]Gal(b1-4)Glc
Method in brief: as §1

[3] = molecular target: Fuc(a1-2)[GalNAc(a1-3)]Gal(b1-4)GlcNAc
Method in brief: as §1

[4] = molecular target: Fuc(a1-2)[GalNAc(a1-3)]Gal(b1-4)GlcNAc(b1-2)Man
Method in brief: as §1

[5] = molecular target: Fuc(a1-2)[GalNAc(a1-3)]Gal(b1-4)GlcNAc(b1-2)Man(a1-3)[Fuc(a1-2)[GalNAc(a1-3)]Gal(b1-4)GlcNAc(b1-2)Man(a1-6)]Man(b1-4)GlcNAc(b1-4)GlcNAc
Method in brief: as §1

[6] = molecular target: Fuc(a1-2)[GalNAc(a1-3)]Gal(b1-4)GlcNAc(b1-2)Man(a1-3)[Fuc(a1-2)[GalNAc(a1-3)]Gal(b1-4)GlcNAc(b1-2)Man(a1-6)]Man(b1-4)GlcNAc(b1-4)[Fuc(a1-6)]GlcNAc
Method in brief: as §1

[7] = molecular target: Fuc(a1-2)[GalNAc(a1-3)]Gal(b1-4)GlcNAc(b1-3)Gal(b1-4)GlcNAc
Method in brief: as §1

[8] = molecular target: Fuc(a1-2)[GalNAc(a1-3)]Gal(b1-4)GlcNAc(b1-3)Gal(b1-4)GlcNAc(b1-3)Gal(b1-4)GlcNAc
Method in brief: as §1

[9] = molecular target: Fuc(a1-2)[GalNAc(a1-3)]Gal(b1-4)GlcNAc(b1-3)GalNAc
Method in brief: as §1

[10] = molecular target: Fuc(a1-2)[GalNAc(a1-3)]Gal(b1-4)GlcNAc(b1-3)[Fuc(a1-2)[GalNAc(a1-3)]Gal(b1-4)GlcNAc(b1-6)]GalNAc
Method in brief: as §1

[11] = molecular target: Fuc(a1-2)[GalNAc(a1-3)]Gal(b1-4)GlcNAc(b1-6)GalNAc
Method in brief: as §1

[12] = molecular target: Fuc(a1-2)[GalNAc(a1-3)]Gal(b1-4)[Fuc(a1-3)]GlcNAc
Method in brief: as §1

[13] = molecular target: Fuc(a1-2)[GalNAc(a1-3)]Gal(b1-4)[Fuc(a1-3)]GlcNAc(b1-3)GalNAc
Method in brief: as §1

[14] = molecular target: Fuc(a1-2)[GalNAc(a1-4)]Gal(b1-4)GlcNAc
Method in brief: as §1

[15] = molecular target: Fuc(a1-2)[GalNAc(b1-3)]Gal
Method in brief: as §1

Fuc(a1-3)GlcNAc = molecular target: Fuc(a1-3)GlcNAc
Method in brief: as §1

[16] = molecular target: Fuc(a1-3)[Gal(b1-4)]Glc6S
Method in brief: as §1

[17] = molecular target: Fuc(a1-3)[Gal(b1-4)]GlcNAc
Method in brief: as §1

[18] = molecular target: Fuc(a1-3)[Gal(b1-4)]GlcNAc(b1-2)Man
Method in brief: as §1

[19] = molecular target: Fuc(a1-3)[Gal(b1-4)]GlcNAc(b1-2)Man(a1-3)[Fuc(a1-3)[Gal(b1-4)]GlcNAc(b1-2)Man(a1-6)]Man(b1-4)GlcNAc(b1-4)GlcNAc
Method in brief: as §1

[20] = molecular target: Fuc(a1-3)[Gal(b1-4)]GlcNAc(b1-2)Man(a1-3)[Fuc(a1-3)[Gal(b1-4)]GlcNAc(b1-2)Man(a1-6)]Man(b1-4)GlcNAc(b1-4)[Fuc(a1-6)]GlcNAc
Method in brief: as §1

[21] = molecular target: Fuc(a1-3)[Gal(b1-4)]GlcNAc(b1-3)Gal(b1-3)[Fuc(a1-4)]GlcNAc
Method in brief: as §1

[22] = molecular target: Fuc(a1-3)[Gal(b1-4)]GlcNAc(b1-3)Gal(b1-4)[Fuc(a1-3)]GlcNAc
Method in brief: as §1

[23] = molecular target: Fuc(a1-3)[Gal(b1-4)]GlcNAc(b1-3)Gal(b1-4)[Fuc(a1-3)]GlcNAc(b1-3)Gal(b1-4)[Fuc(a1-3)]GlcNAc
Method in brief: as §1

[24] = molecular target: Fuc(a1-3)[Gal(b1-4)]GlcNAc(b1-3)GalNAc
Method in brief: as §1

[25] = molecular target: Fuc(a1-3)[Gal(b1-4)]GlcNAc(b1-6)GalNAc
Method in brief: as §1

[26] = molecular target: Fuc(a1-3)[Gal(b1-4)]GlcNAc(b1-6)[Gal(b1-3)GlcNAc(b1-3)]Gal(b1-4)Glc
Method in brief: as §1

[27] = molecular target: Fuc(a1-3)[Gal(b1-4)]GlcNAc6S
Method in brief: as §1

[28] = molecular target: Fuc(a1-3)[Gal3S(b1-4)]Glc
Method in brief: as §1

[29] = molecular target: Fuc(a1-3)[Gal3S(b1-4)]GlcNAc
Method in brief: as §1

[30] = molecular target: Fuc(a1-3)[Gal3S(b1-4)]GlcNAc6S
Method in brief: as §1

[31] = molecular target: Fuc(a1-3)[GalNAc(b1-4)]GlcNAc
Method in brief: as §1

[32] = molecular target: Fuc(a1-3)[GalNAc(b1-4)]GlcNAc6S
Method in brief: as §1

Fuc(a1-4)GlcNAc = molecular target: Fuc(a1-4)GlcNAc
Method in brief: as §1

Fuc(b1-3)GlcNAc = molecular target: Fuc(b1-3)GlcNAc
Method in brief: as §1

Gal(a1-2)Gal = molecular target: Gal(a1-2)Gal
Method in brief: as §1

Gal(a1-3)Gal = molecular target: Gal(a1-3)Gal
Method in brief: as §1

B1: his-Lectin-24A (Drosophila melanogaster) (protein)
chain: MFRLSVLVLNLLLVSHEFSAGTAKIEIQPLPALCNGYCFPTLKPVMEYVAIHQDKWNTCTEILANEARKDQIQLNIQLDALKADVSNIKASQLSKDEKLDRMEREQFAMHESLETINRYLTVKLDRTKLQLEAIKNTMDYMKAQMDGYFSAINGVQCLQPGFEKIGDRYFYIEEDVELNWLDAQAKCRRMGGHLASIKTKQEFDAIVEKLDDSKSYFLGVNENTKTGDFVSAASGKSCLYHEWGPGEPHHNNDQERCVSILRKLMHVGNCTYEKRFICQYGI
B1 was tested. Which “glycan array binding signal (z-score)” value [1] did it give?
Its value is -0.776.

What about the “glycan array binding signal (z-score)” value [2] of the same binder?
The value was 0.955.

And the “glycan array binding signal (z-score)” value [3]?
Its value is -0.611.

And the “glycan array binding signal (z-score)” value [4]?
Its value is -1.35.

And the “glycan array binding signal (z-score)” value [5]?
The value was 0.814.

What about the “glycan array binding signal (z-score)” value [6] of the same binder?
The value was -0.732.

And the “glycan array binding signal (z-score)” value [7]?
The value was -0.305.

What about the “glycan array binding signal (z-score)” value [8] of the same binder?
Its value is 1.05.

And the “glycan array binding signal (z-score)” value [9]?
Its value is -0.337.

What about the “glycan array binding signal (z-score)” value [10] of the same binder?
The value was 0.606.

And the “glycan array binding signal (z-score)” value [11]?
The value was -0.788.

What about the “glycan array binding signal (z-score)” value [12] of the same binder?
The value was 0.121.

What about the “glycan array binding signal (z-score)” value [13] of the same binder?
Its value is 0.459.

And the “glycan array binding signal (z-score)” value [14]?
Its value is 0.721.

What about the “glycan array binding signal (z-score)” value [15] of the same binder?
Its value is 0.127.

What about the “glycan array binding signal (z-score)” value (Fuc(a1-3)GlcNAc) of the same binder?
The value was 1.03.

What about the “glycan array binding signal (z-score)” value [16] of the same binder?
The value was -0.078.

What about the “glycan array binding signal (z-score)” value [17] of the same binder?
Its value is -1.1.

And the “glycan array binding signal (z-score)” value [18]?
Its value is 1.26.

And the “glycan array binding signal (z-score)” value [19]?
The value was -0.599.

What about the “glycan array binding signal (z-score)” value [20] of the same binder?
Its value is 0.275.

What about the “glycan array binding signal (z-score)” value [21] of the same binder?
The value was -1.11.

And the “glycan array binding signal (z-score)” value [22]?
The value was 0.472.

What about the “glycan array binding signal (z-score)” value [23] of the same binder?
The value was 0.276.

What about the “glycan array binding signal (z-score)” value [24] of the same binder?
Its value is -0.137.

And the “glycan array binding signal (z-score)” value [25]?
Its value is 0.241.

What about the “glycan array binding signal (z-score)” value [26] of the same binder?
The value was -1.75.

What about the “glycan array binding signal (z-score)” value [27] of the same binder?
The value was 0.362.

And the “glycan array binding signal (z-score)” value [28]?
Its value is -1.19.

What about the “glycan array binding signal (z-score)” value [29] of the same binder?
The value was -0.144.

What about the “glycan array binding signal (z-score)” value [30] of the same binder?
Its value is 0.942.

What about the “glycan array binding signal (z-score)” value [31] of the same binder?
Its value is 0.526.

What about the “glycan array binding signal (z-score)” value [32] of the same binder?
Its value is 0.837.

What about the “glycan array binding signal (z-score)” value (Fuc(a1-4)GlcNAc) of the same binder?
Its value is -0.677.

What about the “glycan array binding signal (z-score)” value (Fuc(b1-3)GlcNAc) of the same binder?
Its value is -0.015.

And the “glycan array binding signal (z-score)” value (Gal(a1-2)Gal)?
The value was -1.5.

What about the “glycan array binding signal (z-score)” value (Gal(a1-3)Gal) of the same binder?
Its value is 1.97.
